Data as given in the supplement of paper PMC8975748.
Structures can show the parent of a compound that is named as a salt. ± gives the standard deviation of the averaged measurements. Some of the results follow. These are raw signals, not scaled to a control.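 One yeast strain harboring four plasmids, each bearing a fluorescent protein plus an amino-acid or uracil synthesis gene, founds the community. Random loss of plasmids produces mixed prototroph and auxotroph subpopulations. Cells were fixed, then counted with automated confocal fluorescence imaging, with DMSO-treated wells as vehicle reference.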

Tested on: Saccharomyces cerevisiae BY4741 SeMeCo community
Assay: imaged cell count per well (cells); higher = more cells
Conditions: 10 µM; 24 h; SM minimal medium
Experimental: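 Same SeMeCo high-content imaging drug screen: Selleck FDA-approved drugs at 10 µM, 24 h in SM medium, 384-well plates, 3 replicates.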

Question: Which “imaged cell count per well” value does the source give for CC(Cc1ccc(O)c(O)c1)C(C)Cc1ccc(O)c(O)c1 (stereo not given) [Nordihydroguaiaretic acid (NDGA)] here?
Answer: 23700 ± 3400

Question: For Cc1ncc([N+](=O)[O-])n1CC(O)CCl (stereo not given) [Ornidazole], which “imaged cell count per well” value is on record?
Answer: 19000 ± 6000

Question: With Cc1c(OCC(F)(F)F)ccnc1C[S+]([O-])c1nc2ccccc2[nH]1 (stereo not given) [Lansoprazole] as the compound, how does the “imaged cell count per well” value read?
Answer: 20600 ± 4200

Question: How did the “imaged cell count per well” value turn out when Cc1ccc(Cl)c(Nc2ccccc2C(=O)O)c1Cl [Meclofenamate Sodium] was run?
Answer: 23000 ± 2900

Question: N#Cc1ccc(Oc2ccc3c(c2)COB3O)cc1 [Crisaborole (AN2728)] was tested. Which “imaged cell count per well” value did it give?
Answer: 17200 ± 3500

Question: Which “imaged cell count per well” value does the source give for C[C@H](NCc1ccc(OCc2cccc(F)c2)cc1)C(N)=O [Safinamide Mesylate] here?
Answer: 24800 ± 1500

Question: How did the “imaged cell count per well” value turn out when CC[C@@H]([C@H](C)O)n1ncn(-c2ccc(N3CCN(c4ccc(OC[C@@H]5CO[C@@](Cn6cncn6)(c6ccc(F)cc6F)C5)cc4)CC3)cc2)c1=O [Posaconazole] was run?
Answer: 5800 ± 1500

Question: C=C[C@H]1CN2CC[C@H]1C[C@@H]2[C@@H](O)c1ccnc2ccc(OC)cc12 [Quinidine sulfate] was tested. Which “imaged cell count per well” value did it give?
Answer: 21200 ± 4200

Question: How did the “imaged cell count per well” value turn out when O=S1(=O)CCN(CN2CCS(=O)(=O)NC2)CN1 [Taurolidine] was run?
Answer: 25900 ± 7500

Question: CO[C@H]1/C=C/O[C@@]2(C)Oc3c(C)c(O)c4c(c3C2=O)C2=NC3(CCN(CC(C)C)CC3)NC2=C(NC(=O)/C(C)=C\C=C\[C@H](C)[C@H](O)[C@@H](C)[C@@H](O)[C@@H](C)[C@H](OC(C)=O)[C@@H]1C)C4=O [Rifabutin] was tested. Which “imaged cell count per well” value did it give?
Answer: 18200 ± 5300

Question: How did the “imaged cell count per well” value turn out when C#C[C@]1(OC(C)=O)CC[C@H]2[C@@H]3CCC4=C[C@@H](OC(C)=O)CC[C@@H]4[C@H]3CC[C@@]21C [Ethynodiol diacetate] was run?
Answer: 26800 ± 9200

Question: Which “imaged cell count per well” value does the source give for Cc1onc(-c2ccccc2)c1-c1ccc(S(N)(=O)=O)cc1 [Valdecoxib] here?
Answer: 30500 ± 3200

Question: With CN1CCN(CCCN2c3ccccc3Sc3ccc(C(F)(F)F)cc32)CC1 [Trifluoperazine 2HCl] as the compound, how does the “imaged cell count per well” value read?
Answer: 27300 ± 8800

Question: OCCOc1ccc(/C(=C(/CCCl)c2ccccc2)c2ccccc2)cc1 [Ospemifene] was tested. Which “imaged cell count per well” value did it give?
Answer: 21200 ± 5200

Question: With CN1[C@@H]2CC[C@H]1C[C@@H](OC(=O)c1c[nH]c3ccccc13)C2 [Tropisetron] as the compound, how does the “imaged cell count per well” value read?
Answer: 29000 ± 3400

Question: How did the “imaged cell count per well” value turn out when Cn1cc(C(=O)[C@@H]2CCc3[nH]cnc3C2)c2ccccc21 [Ramosetron Hydrochloride] was run?
Answer: 18400 ± 7000

Question: With CC1(C)S[C@@H]2[C@H](NC(=O)[C@H](N)c3ccccc3)C(=O)N2[C@H]1C(=O)O [Ampicillin Trihydrate] as the compound, how does the “imaged cell count per well” value read?
Answer: 27000 ± 9500

Question: CC(C)(C)CC(C)(C)c1ccc(OCCOCC[N+](C)(C)Cc2ccccc2)cc1 [Benzethonium Chloride] was tested. Which “imaged cell count per well” value did it give?
Answer: 29600 ± 11000

Question: How did the “imaged cell count per well” value turn out when CN(C)C(=O)COC(=O)Cc1ccc(OC(=O)c2ccc(NC(=N)N)cc2)cc1 [Camostat Mesilate] was run?
Answer: 23000 ± 1200

Question: Which “imaged cell count per well” value does the source give for CN1CCN2c3ncccc3Cc3ccccc3C2C1 (stereo not given) [Mirtazapine] here?
Answer: 24100 ± 7200

Question: Which “imaged cell count per well” value does the source give for COc1cccc2c1C(=O)c1c(O)c3c(c(O)c1C2=O)C[C@@](O)(C(=O)CO)C[C@@H]3O[C@H]1C[C@H](N)[C@H](O[C@@H]2CCCCO2)[C@H](C)O1 [Pirarubicin] here?
Answer: 27100 ± 4200

Question: For CO/N=C(\C(=O)N[C@@H]1C(=O)N2C(C(=O)O)=CCS[C@H]12)c1csc(N)n1 [Ceftizoxime sodium], which “imaged cell count per well” value is on record?
Answer: 25300 ± 7200

Question: For CCCCCCCCCCCC(=O)O [Lauric Acid], which “imaged cell count per well” value is on record?
Answer: 28000 ± 5100

Question: Which “imaged cell count per well” value does the source give for CN1CCCN=C1/C=C/c1cccs1 [Pyrantel Pamoate] here?
Answer: 18900 ± 500

Question: CN1CC(=O)N2[C@H](c3ccc4c(c3)OCO4)c3[nH]c4ccccc4c3C[C@@H]2C1=O [Tadalafil] was tested. Which “imaged cell count per well” value did it give?
Answer: 27100 ± 2900

Question: CO/N=C(\C(=O)N[C@@H]1C(=O)N2C(C(=O)O)=C(Cn3ccc(=N)n3CCO)CS[C@H]12)c1csc(N)n1 [Cefoselis Sulfate] was tested. Which “imaged cell count per well” value did it give?
Answer: 26900 ± 10000

Question: With C[C@@H](O)[C@H]1C(=O)N2C(C(=O)O)=C(S[C@@H]3CN[C@H](C(=O)N(C)C)C3)[C@H](C)[C@H]12 [Meropenem Trihydrate] as the compound, how does the “imaged cell count per well” value read?
Answer: 18300 ± 9000

Question: C/C(=C\C(=O)OCCCCCCCCC(=O)O)C[C@@H]1OC[C@H](C[C@@H]2O[C@H]2[C@@H](C)[C@H](C)O)[C@@H](O)[C@H]1O [Mupirocin calcium] was tested. Which “imaged cell count per well” value did it give?
Answer: 26200 ± 3400

Question: Which “imaged cell count per well” value does the source give for Cc1nnc(SCC2=C(C(=O)O)N3C(=O)[C@@H](NC(=O)Cn4cc(Cl)c(=O)c(Cl)c4)[C@H]3SC2)s1 [Cefazedone] here?
Answer: 23400 ± 9500

Question: With Cc1cc2c(s1)Nc1ccccc1N=C2N1CCN(C)CC1 [Olanzapine] as the compound, how does the “imaged cell count per well” value read?
Answer: 22400 ± 710

Question: C1CCN2C[C@@H]3C[C@@H](CN4CCCC[C@@H]34)[C@H]2C1 [(-)-Sparteine Sulfate] was tested. Which “imaged cell count per well” value did it give?
Answer: 29700 ± 7000

Question: For Nc1c(CC(=O)O)cccc1C(=O)c1ccccc1 [Amfenac Sodium Monohydrate], which “imaged cell count per well” value is on record?
Answer: 19600 ± 8100

Question: Which “imaged cell count per well” value does the source give for O=c1[nH]c(=O)n([C@H]2C[C@H](O)[C@@H](CO)O2)cc1/C=C/Br [Brivudine] here?
Answer: 28000 ± 4500

Question: For COc1cnc(NS(=O)(=O)c2ccc(N)cc2)nc1 [Sulfameter], which “imaged cell count per well” value is on record?
Answer: 18800 ± 4600

Question: How did the “imaged cell count per well” value turn out when O=C1CN(/N=C/c2ccc(-c3ccc([N+](=O)[O-])cc3)o2)C(=O)N1 [Dantrolene sodium hemiheptahydrate] was run?
Answer: 17600 ± 8200

Question: CCN(CC)CC#CCOC(=O)C(O)(c1ccccc1)C1CCCCC1 (stereo not given) [Oxybutynin] was tested. Which “imaged cell count per well” value did it give?
Answer: 20900 ± 5600

Question: With CC(C(=O)O)c1ccc2c(c1)CC(=O)c1ccccc1S2 (stereo not given) [Zaltoprofen] as the compound, how does the “imaged cell count per well” value read?
Answer: 15900 ± 900

Question: Which “imaged cell count per well” value does the source give for COc1cc(Cc2cnc(N)nc2N)cc(OC)c1OC [Trimethoprim] here?
Answer: 20900 ± 13000

Question: Which “imaged cell count per well” value does the source give for CC(=O)O[C@H]1C[C@@]2(C)[C@@H](C[C@@H](O)[C@H]3[C@@]4(C)CC[C@@H](O)[C@@H](C)[C@@H]4CC[C@@]32C)/C1=C(\CCC=C(C)C)C(=O)O [Fusidate Sodium] here?
Answer: 20000 ± 4200

Question: With Cc1c(-c2ccc(O)cc2)n(Cc2ccc(OCCN3CCCCCC3)cc2)c2ccc(O)cc12 [Bazedoxifene Acetate] as the compound, how does the “imaged cell count per well” value read?
Answer: 19200 ± 4900
